# According to the RNAGym collection of RNA variant scans (doi:10.1126/science.aae0568):
# Variants at the background level are over-represented here.
# B1: tRNA (parent)
# chain: GUUCCGUUGGCGUAAUGGUAACGCGUCUCCCUCCUAAGGAGAAGACUGCGGGUUCGAGUCCCGUACGGAACG
# Variants of: B1
# Assay: yeast fitness relative to wild type (ratio to wild type); higher = fitter; tRNA-Arg(CCU), competitive growth, 37 C, YPD
# In short: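 Changes in genotype frequencies gave Darwinian fitness relative to wild type. Frequencies were read by 100-nucleotide paired-end sequencing of gene amplicons before and after pooled Saccharomyces cerevisiae strains, carrying tRNA-Arg(CCU) gene variants at the native locus, were competed in YPD at 37°C for 24 hours in six replicates. A genotype was kept only with ≥ 100 starting reads, and estimates < 0.5 were set to 0.5.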
row,Variant,yeast fitness
1,U2G G12U A43U,0.631
2,U2G G17A A20G C27G A36C U53A,≤ 0.5
3,U2G G23C G58A C61G A70U,≤ 0.5
4,U2G G38A A42C U54C,≤ 0.5
5,U2G G39C U47C C66A,≤ 0.5
6,U2G G48C G52C,≤ 0.5
7,U2G G56A,0.896
8,U2G U7C G18C A70U,≤ 0.5
9,U2G U7G U26A C49U A65U,≤ 0.5
10,U2G U8A G23A U26G A43G,0.576
11,U2G U8C G12A A45U G48A,≤ 0.5
12,U2G U13C A21G U35A C49U C55U A65G,≤ 0.5
13,U2G U13G U16C C55G A69C,≤ 0.5
14,U2G U16G C27A A36C,≤ 0.5
15,U2G U28C G50A U59G C60U,≤ 0.5
16,U2G U28G A42G G68U,≤ 0.5
17,U2G U47G G58C,≤ 0.5
18,U3A A14C,0.567
19,U3A A14C A42C U47C,≤ 0.5
20,U3A A14G G23C C61U G67U,≤ 0.5
21,U3A A14U C61A,≤ 0.5
22,U3A A14U G41C A70G,≤ 0.5
23,U3A A14U G48A A57C U59C,≤ 0.5
24,U3A A15C G17C,0.507

row,Variant,yeast fitness
1,U3A A15G U19A G41A G50A A65U,≤ 0.5
2,U3A A15U C22G,≤ 0.5
3,U3A A20U C31G,0.535
4,U3A A21C C24G C60G,≤ 0.5
5,U3A A21G U28A A42C C55A A69U,≤ 0.5
6,U3A A21G U35A A40U U54C,≤ 0.5
7,U3A A36G G68A A70C,0.566
8,U3A A37C G44C A45U,≤ 0.5
9,U3A A43U,0.929
10,U3A A65G,0.899
11,U3A C4A U35A A37U C46U A65C,≤ 0.5
12,U3A C4A U54C,≤ 0.5
13,U3A C4G G9A C11G C60A C66U,≤ 0.5
14,U3A C4U A37G A40U C61U,≤ 0.5
15,U3A C4U C33G C34G A57U C61U,≤ 0.5
16,U3A C4U U8A G10A A21G C49G A57G G67U,0.655
17,U3A C5A A45C G50C U64C A70U,≤ 0.5
18,U3A C5G A21U C22U U32A C49G G67A,≤ 0.5
19,U3A C5U A15C A36U A40G C49G C66G,≤ 0.5
20,U3A C5U C33G,0.639
21,U3A C5U G18C U54A A70G,≤ 0.5
22,U3A C11A A70G,≤ 0.5
23,U3A C11G A14C C24G C62G,≤ 0.5
24,U3A C11G C34U A37G C46U C61A,≤ 0.5

row,Variant,yeast fitness
1,U3A C11U U13A G17C G18C A36C,≤ 0.5
2,U3A C11U U13C C31A A42G G67C,≤ 0.5
3,U3A C22A C33G U35A C55U,≤ 0.5
4,U3A C22U C24A C27U A43C,0.522
5,U3A C22U C24A C27U G52C,≤ 0.5
6,U3A C24A A36U A43C,≤ 0.5
7,U3A C24G C61U,≤ 0.5
8,U3A C24U U35C G39A C55A,≤ 0.5
9,U3A C27A C30U G41C A43U C49A,≤ 0.5
10,U3A C27G C31U C33U A42C A70C,≤ 0.5
11,U3A C27G C31U C33U A42C C66U A70C,≤ 0.5
12,U3A C29A G68C A70C,≤ 0.5
13,U3A C29U C31A A40C C66U,≤ 0.5
14,U3A C30G C46G,≤ 0.5
15,U3A C31A C34A A37C C60G A65G,≤ 0.5
16,U3A C33G A43G G58A G67A A69U,≤ 0.5
17,U3A C33G G67A,≤ 0.5
18,U3A C33U G50A,≤ 0.5
19,U3A C46G,0.982
20,U3A C49U C55A C66U,≤ 0.5
21,U3A G6A C34U C49A G52A,≤ 0.5
22,U3A G6A U7C C62G G63C,≤ 0.5
23,U3A G6A U8G U19C A40U C55A,≤ 0.5
24,U3A G6C U35A G50C A65C,≤ 0.5

row,Variant,yeast fitness
1,U3A G9A U19A G44C A65U,≤ 0.5
2,U3A G9A U19A G44C G68C,≤ 0.5
3,U3A G10C A36U A40C A57C,≤ 0.5
4,U3A G10C A36U A40C C60G,0.569
5,U3A G18A C31G A40G G52C,≤ 0.5
6,U3A G18C C22U G41C C60G,≤ 0.5
7,U3A G23A U32A C66U,≤ 0.5
8,U3A G23C C46U,≤ 0.5
9,U3A G25A C31U G63C G67C A69U,≤ 0.5
10,U3A G51A A65G A69U,1.03
11,U3A U7G A14U G25A G41C G50C,≤ 0.5
12,U3A U35C A37C A45C,≤ 0.5
13,U3C A14C,0.703
14,U3C A14G C30U A45C C46G,≤ 0.5
15,U3C A14U A21U A37G C46U,≤ 0.5
16,U3C A14U A37U,≤ 0.5
17,U3C A14U A40G A57G A65G,≤ 0.5
18,U3C A14U C55U A57U,≤ 0.5
19,U3C A15C C60G,≤ 0.5
20,U3C A15G A36G A70G,≤ 0.5
21,U3C A15G A40U C55G C61G,≤ 0.5
22,U3C A15U C34U C62U,≤ 0.5
23,U3C A20G C29G C55U A65G A69C,≤ 0.5
24,U3C A20U C61G A70G,≤ 0.5

row,Variant,yeast fitness
1,U3C A21C C22G G38C A57C,≤ 0.5
2,U3C A21G C34G,≤ 0.5
3,U3C A21G U28A U47G,≤ 0.5
4,U3C A21U G38C G67A,≤ 0.5
5,U3C A37G A70U,0.568
6,U3C C4U,1.01
7,U3C C5G A15C C27G,≤ 0.5
8,U3C C5G A21G U32C A65U G68A,≤ 0.5
9,U3C C5G U26G,≤ 0.5
10,U3C C11A A43C,≤ 0.5
11,U3C C11A C27G C33A A43C C46A C62A C66U,≤ 0.5
12,U3C C11A C27G C33A A43C C46A U64C,≤ 0.5
13,U3C C11G C31U C33A C66U,≤ 0.5
14,U3C C11U G17A,≤ 0.5
15,U3C C22G C27A C49U,≤ 0.5
16,U3C C24A C27U U54C U59C,≤ 0.5
17,U3C C24U A36C,≤ 0.5
18,U3C C29G U47A,≤ 0.5
19,U3C C29U C49U C66A,≤ 0.5
20,U3C C29U G58C,0.58
21,U3C C30G C31U A57G C60G C61G,≤ 0.5
22,U3C C30U G44A C61U,≤ 0.5
23,U3C C30U U35A,≤ 0.5
24,U3C C31A A42G A43G G68C,≤ 0.5

row,Variant,yeast fitness
1,U3C C33G A45C G50C,≤ 0.5
2,U3C C34U G41A,≤ 0.5
3,U3C C34U G41C U53A,≤ 0.5
4,U3C C55G C61U,≤ 0.5
5,U3C C55U A57C G67A,≤ 0.5
6,U3C G6A G18C C30U C31U G48A C55G,≤ 0.5
7,U3C G6C A14U A15G G25A G38A U47A C60G A70G,≤ 0.5
8,U3C G9A C24U C55G,≤ 0.5
9,U3C G9A U32G C34U A57G,≤ 0.5
10,U3C G9U G18A C46A C49G,≤ 0.5
11,U3C G10A U13C C46U U47A U54C,≤ 0.5
12,U3C G10C C46U C66U,≤ 0.5
13,U3C G12A A21G C46G G50A,≤ 0.5
14,U3C G12C G41A A42C,≤ 0.5
15,U3C G17C A40G C61U,≤ 0.5
16,U3C G18C C31G G68C,≤ 0.5
17,U3C G23A C27G C33A,≤ 0.5
18,U3C G25A A45G,0.59
19,U3C G25A U54C C61G,≤ 0.5
20,U3C G25C G38A A42C G52A C62U,≤ 0.5
21,U3C G38C C62G,≤ 0.5
22,U3C G41C G52C,≤ 0.5
23,U3C G50C U64A,≤ 0.5
24,U3C U8A A15C,≤ 0.5

row,Variant,yeast fitness
1,U3C U8A A43U U64A A69C,≤ 0.5
2,U3C U8C A14G U28G A36U C46U C62G G68C,≤ 0.5
3,U3C U8C A14U,≤ 0.5
4,U3C U8G A43U C62G C66A A69C,≤ 0.5
5,U3C U16A G23C C29U G58A,≤ 0.5
6,U3C U16C C22U C30G C31G A37U,≤ 0.5
7,U3C U16G U19A A43C U47C U59G,≤ 0.5
8,U3C U19G A21C C55G U59A,≤ 0.5
9,U3C U32G C61A C62A,0.53
10,U3C U35C A42G C49A,≤ 0.5
11,U3C U54C G67C,≤ 0.5
12,U3G A14G A43U U54A A57C,≤ 0.5
13,U3G A15G C24G A65G G68A,≤ 0.5
14,U3G A21G G38C,≤ 0.5
15,U3G C4G C22U C29U,≤ 0.5
16,U3G C4U C30U C33G C55U G68U,≤ 0.5
17,U3G C4U G44C,≤ 0.5
18,U3G C5G G10A C31G G58C G67C,≤ 0.5
19,U3G C5U C34G,≤ 0.5
20,U3G C5U C55U,≤ 0.5
21,U3G C11A C24A C49U,≤ 0.5
22,U3G C11G U13A A20G C30G,≤ 0.5
23,U3G C11U U19C A20U A42C A65G,≤ 0.5
